Data taken from PubChem BioAssay AID2685 (National Center for Advancing Translational Sciences (NCATS), 2010).
The other results are listed elsewhere or left out. These are further read-outs of the screen, such as a control signal, another cell line or another target. No call is given for them. Most of these compounds were active or inconclusive in the main read-out, so they are no random draw. Potencies come from curve fits of mixed quality, noted in brackets.

Test: qHTS Assay for Lipid Storage Modulators in Drosophila S3 Cells;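 as to cell number change: cells counted by Cell Tracker Red CMTPX staining in the red channel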
Conditions: BODIPY lipid droplet fluorescence, 18-24 h; for cell number change: measured here: cell count max response, cells fed with added oleic acid
How it was run: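 Laser-scanning cytometry quantifies lipid droplet accumulation (500–530 nm total intensity; droplet/cell object ratio) in oleic acid-fed (400 uM added) Drosophila S3 cells treated with a concentration series. 20 uM Triacsin C defined 100% inhibition.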

[1] = measured here: cell number channel AC50, cells fed with added oleic acid
[2] = measured here: lipid fluorescence (Fed channel) AC50, cells fed with added oleic acid

Row | SMILES | cell number change | AC50 [1] | AC50 [2]
1 | O=C(CN1C(=O)/C(=C\c2ccco2)SC1=S)Nc1ccc(O)cc1C(=O)O | 11.6% | – | –
2 | CC1(c2ccccc2)CC2CC(c3ccccc3)N1O2 (configuration not stated) | -16.5% | 1.46 µM [falling, partial curve] | 6.51 µM [falling, single point]
3 | Cc1ccc(Cn2nnc3c(=O)[nH]c(C4CCCN(S(=O)(=O)c5ccccc5F)C4)nc32)cc1 (configuration not stated) | 115% | 23.1 µM [rising, partial curve] | 6.51 µM [rising, single point]
4 | O=S(=O)(N1CCCCC1)n1nnc2ccccc21 | -89.3% | 2.59 µM [falling, full curve] | –
5 | Cc1cccc(C)c1NC(=O)CN(C)C(=O)c1cc(S(=O)(=O)N2CCOCC2)ccc1N1CCCC1 | -19.3% | – | –
6 | COC(=O)c1ccccc1NC(=O)C1CCN(C(=O)Cc2ccccc2)CC1 | 19.5% | – | –
7 | Nc1ccc(O)c2c(=O)cc(-c3ccccc3Cl)oc12 | 0.0128% | – | 29.1 µM [rising, single point]
8 | COc1ccc(-n2nc(C(=O)NCC(=O)NCCN(C)C)c3ccccc3c2=O)c(OC)c1 | – | 0.58 µM [rising, single point] | 29.1 µM [rising, single point]
9 | CCn1c(-c2cc(-c3ccccc3)sc2N)n[nH]c1=S | -21.1% | – | 32.6 µM [falling, single point]
10 | COC(=O)/C(C#N)=C/c1c(N2CCN(c3cccc(Cl)c3)CC2)nc2c(C)cccn2c1=O | 59.5% | 18.4 µM [rising, single point] | –
11 | COc1ccc(-c2c(C#Cc3ccsc3)c3cc(-c4ccc5c(c4)OCO5)ccc3n2C)cc1 | 21.7% | – | 20.6 µM [rising, single point]
12 | CCOC(=O)c1c(NC(=O)CSc2nnc(C)c(=O)[nH]2)sc2c1CCCC2 | 59.2% | 18.4 µM [rising, partial curve] | –
13 | COc1ccc(N(CC(=O)NCc2ccco2)S(=O)(=O)c2ccc(C)cc2)cc1OC | 94.3% | – | 16.4 µM [rising, partial curve]
14 | Cc1ccccc1CCN(C(=O)c1csnn1)C(C(=O)NC1CCCC1)c1ccco1 (configuration not stated) | – | 2.06 µM [rising, partial curve, poor fit] | –
15 | CCCCCOc1ccc(C(=O)CCC(=O)N2CCCC2)cc1 | -13.7% | 0.0231 µM [falling, single point] | –
16 | Cc1cc(Oc2ccccc2)nc(SCC(=O)Nc2ccc(Cl)c(Cl)c2)n1 | 20% | – | 14.6 µM [rising, partial curve]
17 | Cc1cccnc1NC(=O)c1c(O)c2cccc3c2n(c1=O)CCC3 | -8.09% | – | 0.92 µM [rising, full curve, poor fit]

As entered above:
`Cc1cccnc1NC(=O)c1c(O)c2cccc3c2n(c1=O)CCC3` – AC50 [2]: 0.92 µM [rising, full curve, poor fit]
`COc1ccc(N(CC(=O)NCc2ccco2)S(=O)(=O)c2ccc(C)cc2)cc1OC` – AC50 [2]: 16.4 µM [rising, partial curve]
